Data on two molecules can be found in publication PMC12848939.

No constants are given. Whether binding was seen depends on the method and setting. Binding seen in cells or lysates may run through a third protein. Here binding means that the protein was enriched with, or labelled near, the bait; the list need not be complete. For part of these data: Sequences can lack the tags named with a protein.

Assay [1] addresses T1, Enp1-TAP (S. cerevisiae) (UniProt P38333).
T1 sequence: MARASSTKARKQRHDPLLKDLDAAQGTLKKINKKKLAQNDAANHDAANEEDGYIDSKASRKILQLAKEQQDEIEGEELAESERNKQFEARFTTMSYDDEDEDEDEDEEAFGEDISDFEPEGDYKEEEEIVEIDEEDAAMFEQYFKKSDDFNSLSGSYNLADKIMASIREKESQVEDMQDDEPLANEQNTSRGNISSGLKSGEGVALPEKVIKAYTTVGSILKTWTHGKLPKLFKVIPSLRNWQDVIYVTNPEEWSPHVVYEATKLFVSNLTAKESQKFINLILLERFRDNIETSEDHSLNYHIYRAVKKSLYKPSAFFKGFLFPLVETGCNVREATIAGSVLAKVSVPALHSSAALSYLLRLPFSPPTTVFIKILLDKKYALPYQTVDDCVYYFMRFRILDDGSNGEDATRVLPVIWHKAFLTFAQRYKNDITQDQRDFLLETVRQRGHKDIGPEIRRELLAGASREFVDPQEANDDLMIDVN
In words: affinity purification with mass spectrometry; tandem affinity purification of chromosomally TAP-tagged baits from yeast lysate (IgG Sepharose, TEV elution, Calmodulin Sepharose, EGTA elution; 50 mM Tris-HCl pH 7.5, 100 mM NaCl, 1.5 mM MgCl2, 0.075% NP-40); label-free MS, three replicates; Pwp2-TAP and Enp1-TAP also from sni445 deletion strains.

In assay [2] the target is T2, Pwp2-TAP (S. cerevisiae) (UniProt P25635).
T2 sequence: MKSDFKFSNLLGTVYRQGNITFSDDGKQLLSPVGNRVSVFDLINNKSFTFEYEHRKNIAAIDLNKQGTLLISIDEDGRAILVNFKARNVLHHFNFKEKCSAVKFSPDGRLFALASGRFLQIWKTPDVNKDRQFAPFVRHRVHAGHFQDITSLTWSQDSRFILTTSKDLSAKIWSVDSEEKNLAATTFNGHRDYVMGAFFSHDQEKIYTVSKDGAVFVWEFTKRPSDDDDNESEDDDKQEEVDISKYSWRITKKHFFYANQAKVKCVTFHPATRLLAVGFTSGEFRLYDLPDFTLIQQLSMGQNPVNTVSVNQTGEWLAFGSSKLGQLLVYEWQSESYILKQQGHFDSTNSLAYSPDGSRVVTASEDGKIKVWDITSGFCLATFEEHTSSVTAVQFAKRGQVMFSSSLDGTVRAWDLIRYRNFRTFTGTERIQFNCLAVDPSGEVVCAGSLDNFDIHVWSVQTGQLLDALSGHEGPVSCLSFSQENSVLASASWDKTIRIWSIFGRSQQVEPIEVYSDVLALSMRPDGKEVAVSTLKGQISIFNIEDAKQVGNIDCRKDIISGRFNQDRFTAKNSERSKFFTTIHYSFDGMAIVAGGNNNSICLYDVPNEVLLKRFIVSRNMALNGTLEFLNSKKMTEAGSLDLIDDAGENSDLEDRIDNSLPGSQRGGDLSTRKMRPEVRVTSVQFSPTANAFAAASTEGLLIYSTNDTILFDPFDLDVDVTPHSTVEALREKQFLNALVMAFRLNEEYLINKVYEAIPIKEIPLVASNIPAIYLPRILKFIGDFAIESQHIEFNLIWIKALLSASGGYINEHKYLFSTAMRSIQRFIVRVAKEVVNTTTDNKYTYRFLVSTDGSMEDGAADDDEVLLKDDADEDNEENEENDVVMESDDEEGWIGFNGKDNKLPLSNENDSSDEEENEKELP
The assay is described as above.

Assay [3] concerns the target T3, Nop58-FLAG (S. cerevisiae), Q12499.
T3 chain: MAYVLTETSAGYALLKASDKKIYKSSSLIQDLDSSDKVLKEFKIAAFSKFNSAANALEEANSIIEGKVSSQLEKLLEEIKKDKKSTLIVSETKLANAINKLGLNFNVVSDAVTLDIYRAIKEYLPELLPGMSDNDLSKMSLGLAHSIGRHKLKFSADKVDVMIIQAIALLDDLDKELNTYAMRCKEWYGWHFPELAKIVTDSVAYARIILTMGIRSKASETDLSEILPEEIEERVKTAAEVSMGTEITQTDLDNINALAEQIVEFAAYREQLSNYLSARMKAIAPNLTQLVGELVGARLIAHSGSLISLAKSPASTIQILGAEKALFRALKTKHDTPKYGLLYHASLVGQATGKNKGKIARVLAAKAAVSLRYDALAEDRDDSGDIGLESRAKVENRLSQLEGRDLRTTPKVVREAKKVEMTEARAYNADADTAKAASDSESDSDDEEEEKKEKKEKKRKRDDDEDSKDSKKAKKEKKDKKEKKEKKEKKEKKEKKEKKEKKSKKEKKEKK
In words: affinity purification with mass spectrometry; split-tag two-step purification: first Sni445-TAP on IgG Sepharose with TEV elution, then Nop58-FLAG on anti-FLAG M2 agarose with 3x Flag peptide elution; SDS-PAGE, Coomassie, bands identified by MS. The following applies: remark: other sources report otherwise.

B1: Sni445 (protein, UniProt P53952 1-270)
chain: MSEFKIVSRKDLYNEGEGLGEDYDSNSSSKNNSEHVEVLVPPTEFEFVEVERTDSSLDLKESNNSAHEQKEEKQEEFEFPLFSFGVVEASTSPAQEEQGSSTQEKDTPQTEVSLMKISLKEPEEEIINQERPKDYYFASYSADQKLQFQQSSIDYDVIIQESTKILEDDLRIRDKWPYCQGRIIDLYKHNARIELEQQKELKIKKRRPGQKQRAAKKLALERTKERDTKAREIKKQLKKKFHKRGGKKNKKKVPLNPLAKAGSTPKFRTE
Regarding B1, the figures for the binding entry in assay [1] and in assay [2] were “binds weakly” and “binds”, respectively.

B2: Nop1, P15646 1-327 (enzyme)
chain: MSFRPGSRGGSRGGSRGGFGGRGGSRGGARGGSRGGFGGRGGSRGGARGGSRGGFGGRGGSRGGARGGSRGGRGGAAGGARGGAKVVIEPHRHAGVYIARGKEDLLVTKNMAPGESVYGEKRISVEEPSKEDGVPPTKVEYRVWNPFRSKLAAGIMGGLDELFIAPGKKVLYLGAASGTSVSHVSDVVGPEGVVYAVEFSHRPGRELISMAKKRPNIIPIIEDARHPQKYRMLIGMVDCVFADVAQPDQARIIALNSHMFLKDQGGVVISIKANCIDSTVDAETVFAREVQKLREERIKPLEQLTLEPYERDHCIVVGRYMRSGLKK
With B2, in assay [3], the binding entry is listed as “binds”.
